Measurements from “University of Dundee, Small-Polar-MMV Screening Library” (2021), ChEMBL document CHEMBL3988442.

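Viability assay of Plasmodium falciparum sporozoites; the read-out is not stated. The concentration is filed as 10 mM, unlikely as a test dose, so the dose is not known. Higher reads as lower viability (inferred: compounds with an IC50 in retests scored well above the rest). Strong results were mostly tested again. Size under these conditions: about 34,000 compounds, about 280 of them at 50% or above in at least one test.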

Results are given as percent effect. How 0% and 100% were set is not recorded. Most values in the screen are low, and negative values occur. This is an unselected part of the compounds tested. Two or more numbers in one place are separate tests of the same structure; such repeats can differ widely.

| compound | Percent Effect |
|---|---|
| `CS(=O)(=O)NCC1CCCN(C(=O)Nc2ccccc2Cl)C1` (centres undefined) | -21.31 |
| `CC(NCCCc1cnn(C)c1)c1ccc(Cl)s1` (centres undefined) | -2.336 |
| `Cc1ccc(CN2CCOC3(CCCN(C(=O)c4ccco4)C3)C2)s1.O=C(O)C(F)(F)F` (centres undefined) | -2.617 |
| `Cc1sc(NC(=O)CN(C)S(C)(=O)=O)c(C#N)c1C` | -0.1117 |
| `O=C(O)C(F)(F)F.[H][C@@]12CCCO[C@]1([H])[C@H](N(C)Cc1cncnc1)CN2C(=O)C1CC1` | 14.18 |
| `Cc1csc2c(C3CCCN(C(=O)Cn4cncn4)C3)nc(C)n12` (centres undefined) | -3.507 |
| `O=C(O)C(F)(F)F.[H][C@@]12OCCN(C(=O)CC3CC3)[C@@]1([H])CC[C@H]2OCCCn1cccn1` | 0.3373 |
| `Cc1ccc(C(=O)NCCCNc2ccc(C(F)(F)F)cn2)cc1` | 17.37 |
| `CCCn1nc2c(cc1=O)CN(Cc1nc(CCOC)no1)CC2` | -3.833 |
| `CCc1noc(CS(=O)(=O)c2cccc(OC)c2)n1` | -8.768 |
| `FC(F)(F)Cn1cc(NCc2cscn2)cn1` | -7.692 |
| `O=C1NCCN1C1CCN(CCOc2ccccc2F)CC1` | 0.2681 |
| `Cc1nn(-c2ccccc2)cc1C(=O)N1CCCC(n2cccn2)C1` (centres undefined) | -11.76 |
| `CCOCCCNC(=O)C1(C)CCC(=O)N1Cc1ccccc1F` (centres undefined) | -5.282 |
| `COCCCNC(=O)Cn1nnc(-c2cc3ccccc3o2)n1` | -20.31 |
| `COCC(=O)NCC[C@H]1CC(C)(C)Oc2ccccc21` | 2.117 |
| `Cc1cc(C)c(CNC(=O)N(C)Cc2ccoc2)c(=O)[nH]1` | 5.835 |
| `Cc1ccc(CN2CCCC3(CCN(S(=O)(=O)N(C)C)C3)C2)o1` (centres undefined) | 1.73 |
| `CN1CCN(CC2CC2)C(=O)c2cnc(N3CCCCC3)nc21` | -10.29 |
| `CCOC1CCCN(C(=O)c2nn(-c3ccccc3F)cc2O)C1` (centres undefined) | 11.24 |
| `Cc1nc(-c2cnn(C)c2)sc1C(=O)NCc1cccc(CN(C)C)c1` | 0.6857 |
| `CC(=O)Nc1nc(C(=O)N2CCC(Nc3cccnn3)CC2)cs1` | -14.59 |
| `Cc1cccc(N2CCOCC3(C2)CN(c2cncnc2)C(=O)CO3)n1` (centres undefined) | 2.654 |
| `CN(C)Cc1ccccc1Cn1cncc1-c1cnn(C)c1` | -1.744 |
| `O=C(c1ccco1)N1CCC(n2nc(-c3cccs3)ccc2=O)CC1` | 7.131 |
| `Cc1cc(C(=O)N2CCC3(CC(=O)NC3=O)C2)c(-c2ccccc2)o1` (centres undefined) | -3.514 |
| `CCOCc1ncn2c1CN(C(=O)Nc1ccc(CC)cc1)CC2` | 10.47 |
| `Cc1cc(C)c2c(NCCC34CCCN3CCC4)ncnc2n1` | -6.615 |
| `COCc1nc(C(=O)N2CCCCC2Cn2cc(C)cn2)cs1` (centres undefined) | 6.474 |
| `Cc1cc(C(=O)N2CCOC(c3nc(C(C)C)n[nH]3)C2)no1` (centres undefined) | -16.07 |
| `COCC(=O)Nc1ccc(C)cc1-c1nc(C2CC2)no1` | -12.18 |
| `CCn1cnnc1CNC(=O)c1ccc(Cl)cc1I` | 8.008 |
| `O=C1N(c2cccc(Cl)c2)Cc2nc(=O)n(Cc3cccc(F)c3)n21` | 0 |
| `Cc1cc(CN2CCN(C(=O)c3sccc3C3CC3)CC2)no1` | 1.531 |
| `O=C(O)C(F)(F)F.[H][C@@]12OCCN(S(=O)(=O)CCC)[C@@]1([H])CC[C@@H]2Oc1cccnc1` | 9.579 |
| `Cc1nc(CNC(=O)C(C)Oc2ccccc2F)no1` (centres undefined) | 4.75 |
| `[H][C@@]12CN(CC(=O)OCC)C[C@]1([H])OCCN2c1ncc(F)cn1` | 4.298 |
| `CCCNC(=O)Cn1nc(C(C)C)c2cnn(C(C)(C)C)c2c1=O` | -2.007 |
| `O=C(Cc1ccccc1O)NC1CCCN(c2ccccc2F)C1=O` (centres undefined) | 8.594 |
| `c1cnc(Nc2cc(CCC3CCNCC3)ccn2)cn1` | 8.269 |
| `Cc1ccc(CN2CCc3ncnc(-c4ccc(F)cc4)c3CC2)o1.O=C(O)C(F)(F)F` | -10.5 |
| `CN(CCc1ccccn1)C(=O)CCC1CCCN(c2ccncc2)C1` (centres undefined) | -9.035 |
| `c1cc(CNCC2CNc3ccnn3C2)cc(Cn2cccn2)c1` (centres undefined) | -4.449 |
| `COC(=O)c1cccc(C(=O)N2CCN(c3ccccc3F)CC2)n1` | -11.06 |
| `O=C(C1CCCCC1)N1CCN(Cc2nc(-c3ccco3)no2)CC1` | 3.488 |
| `NC(=O)CN1CCCN(C(=O)Cc2ccc3c(c2)OCO3)CC1` | -12.5 |
| `O=C(O)C(F)(F)F.[H][C@@]12CCCO[C@]1([H])[C@H](NC(=O)c1cnoc1C)CN(CC1CC1)C2` | 8.833 |
| `Cc1ccc(-n2nnc(C(=O)NCC3(CO)CC3)c2C2CC2)cc1` | -14.81 |
| `CC(C)c1cc(NC(=O)c2ccncc2)[nH]n1` | -41.94 and -36.41 and 2.147 |
| `CN1CC2(CCN(C(=O)c3cccc(-n4cccn4)c3)CC2)OC1=O` | -3.837 |
| `COc1ccccc1OCC(=O)NS(=O)(=O)c1ccc(Cl)s1` | 4.659 |
| `CC(C(=O)NCc1cccc(N2CC=CC2)c1)n1cccn1` (centres undefined) | -9.893 |
| `Cn1nnc2c1CCN(C(C(=O)N1CCCCC1)c1ccccc1)C2` (centres undefined) | -3.917 |
| `CC(C)Nc1nc(O)cc(C(C)n2ncc3ccccc3c2=O)n1` (centres undefined) | 7.834 |
| `CN(CCCc1cc(-c2ccccc2)no1)S(C)(=O)=O` | 6.702 |
| `CN(C)c1nccnc1C1CCN(c2cnccn2)CC1` | -5.892 |
| `O=C(NC1CC1)C1CNCCN1C(=O)CCOc1ccccc1` (centres undefined) | -4.758 |
| `Cn1nnc2c1C(COCC1CC1)CN(C(=O)C1=CCCC1)C2` (centres undefined) | 0.5963 |
| `Cc1nc(C)c2c(n1)CCN(C(=O)CC1CC1)CC2` | 6.857 |
| `Oc1cc(-c2ccsc2)nc(C2CCN(Cc3cccnc3)CC2)n1` | 5.489 |
| `[H][C@@]12CS(=O)(=O)C[C@]1([H])N(C(=O)c1cnccc1C)CCN2CCC` | -0.1103 |

The last 8 entries again:

| compound | Percent Effect |
|---|---|
| `CC(C)Nc1nc(O)cc(C(C)n2ncc3ccccc3c2=O)n1` (centres undefined) | 7.834 |
| `CN(CCCc1cc(-c2ccccc2)no1)S(C)(=O)=O` | 6.702 |
| `CN(C)c1nccnc1C1CCN(c2cnccn2)CC1` | -5.892 |
| `O=C(NC1CC1)C1CNCCN1C(=O)CCOc1ccccc1` (centres undefined) | -4.758 |
| `Cn1nnc2c1C(COCC1CC1)CN(C(=O)C1=CCCC1)C2` (centres undefined) | 0.5963 |
| `Cc1nc(C)c2c(n1)CCN(C(=O)CC1CC1)CC2` | 6.857 |
| `Oc1cc(-c2ccsc2)nc(C2CCN(Cc3cccnc3)CC2)n1` | 5.489 |
| `[H][C@@]12CS(=O)(=O)C[C@]1([H])N(C(=O)c1cnccc1C)CCN2CCC` | -0.1103 |